Reference: paper PMC5840266
No constants are given. Whether binding was seen depends on the method and setting. In cells and extracts the contact can be indirect. These calls come from enrichment with a bait or labelling near it, and not all partners need be listed. For some assays here: No binding means not detected with the bait.

Chains of the proteins cited; added tags and fusions are not shown.
UniProt Q9ULT8: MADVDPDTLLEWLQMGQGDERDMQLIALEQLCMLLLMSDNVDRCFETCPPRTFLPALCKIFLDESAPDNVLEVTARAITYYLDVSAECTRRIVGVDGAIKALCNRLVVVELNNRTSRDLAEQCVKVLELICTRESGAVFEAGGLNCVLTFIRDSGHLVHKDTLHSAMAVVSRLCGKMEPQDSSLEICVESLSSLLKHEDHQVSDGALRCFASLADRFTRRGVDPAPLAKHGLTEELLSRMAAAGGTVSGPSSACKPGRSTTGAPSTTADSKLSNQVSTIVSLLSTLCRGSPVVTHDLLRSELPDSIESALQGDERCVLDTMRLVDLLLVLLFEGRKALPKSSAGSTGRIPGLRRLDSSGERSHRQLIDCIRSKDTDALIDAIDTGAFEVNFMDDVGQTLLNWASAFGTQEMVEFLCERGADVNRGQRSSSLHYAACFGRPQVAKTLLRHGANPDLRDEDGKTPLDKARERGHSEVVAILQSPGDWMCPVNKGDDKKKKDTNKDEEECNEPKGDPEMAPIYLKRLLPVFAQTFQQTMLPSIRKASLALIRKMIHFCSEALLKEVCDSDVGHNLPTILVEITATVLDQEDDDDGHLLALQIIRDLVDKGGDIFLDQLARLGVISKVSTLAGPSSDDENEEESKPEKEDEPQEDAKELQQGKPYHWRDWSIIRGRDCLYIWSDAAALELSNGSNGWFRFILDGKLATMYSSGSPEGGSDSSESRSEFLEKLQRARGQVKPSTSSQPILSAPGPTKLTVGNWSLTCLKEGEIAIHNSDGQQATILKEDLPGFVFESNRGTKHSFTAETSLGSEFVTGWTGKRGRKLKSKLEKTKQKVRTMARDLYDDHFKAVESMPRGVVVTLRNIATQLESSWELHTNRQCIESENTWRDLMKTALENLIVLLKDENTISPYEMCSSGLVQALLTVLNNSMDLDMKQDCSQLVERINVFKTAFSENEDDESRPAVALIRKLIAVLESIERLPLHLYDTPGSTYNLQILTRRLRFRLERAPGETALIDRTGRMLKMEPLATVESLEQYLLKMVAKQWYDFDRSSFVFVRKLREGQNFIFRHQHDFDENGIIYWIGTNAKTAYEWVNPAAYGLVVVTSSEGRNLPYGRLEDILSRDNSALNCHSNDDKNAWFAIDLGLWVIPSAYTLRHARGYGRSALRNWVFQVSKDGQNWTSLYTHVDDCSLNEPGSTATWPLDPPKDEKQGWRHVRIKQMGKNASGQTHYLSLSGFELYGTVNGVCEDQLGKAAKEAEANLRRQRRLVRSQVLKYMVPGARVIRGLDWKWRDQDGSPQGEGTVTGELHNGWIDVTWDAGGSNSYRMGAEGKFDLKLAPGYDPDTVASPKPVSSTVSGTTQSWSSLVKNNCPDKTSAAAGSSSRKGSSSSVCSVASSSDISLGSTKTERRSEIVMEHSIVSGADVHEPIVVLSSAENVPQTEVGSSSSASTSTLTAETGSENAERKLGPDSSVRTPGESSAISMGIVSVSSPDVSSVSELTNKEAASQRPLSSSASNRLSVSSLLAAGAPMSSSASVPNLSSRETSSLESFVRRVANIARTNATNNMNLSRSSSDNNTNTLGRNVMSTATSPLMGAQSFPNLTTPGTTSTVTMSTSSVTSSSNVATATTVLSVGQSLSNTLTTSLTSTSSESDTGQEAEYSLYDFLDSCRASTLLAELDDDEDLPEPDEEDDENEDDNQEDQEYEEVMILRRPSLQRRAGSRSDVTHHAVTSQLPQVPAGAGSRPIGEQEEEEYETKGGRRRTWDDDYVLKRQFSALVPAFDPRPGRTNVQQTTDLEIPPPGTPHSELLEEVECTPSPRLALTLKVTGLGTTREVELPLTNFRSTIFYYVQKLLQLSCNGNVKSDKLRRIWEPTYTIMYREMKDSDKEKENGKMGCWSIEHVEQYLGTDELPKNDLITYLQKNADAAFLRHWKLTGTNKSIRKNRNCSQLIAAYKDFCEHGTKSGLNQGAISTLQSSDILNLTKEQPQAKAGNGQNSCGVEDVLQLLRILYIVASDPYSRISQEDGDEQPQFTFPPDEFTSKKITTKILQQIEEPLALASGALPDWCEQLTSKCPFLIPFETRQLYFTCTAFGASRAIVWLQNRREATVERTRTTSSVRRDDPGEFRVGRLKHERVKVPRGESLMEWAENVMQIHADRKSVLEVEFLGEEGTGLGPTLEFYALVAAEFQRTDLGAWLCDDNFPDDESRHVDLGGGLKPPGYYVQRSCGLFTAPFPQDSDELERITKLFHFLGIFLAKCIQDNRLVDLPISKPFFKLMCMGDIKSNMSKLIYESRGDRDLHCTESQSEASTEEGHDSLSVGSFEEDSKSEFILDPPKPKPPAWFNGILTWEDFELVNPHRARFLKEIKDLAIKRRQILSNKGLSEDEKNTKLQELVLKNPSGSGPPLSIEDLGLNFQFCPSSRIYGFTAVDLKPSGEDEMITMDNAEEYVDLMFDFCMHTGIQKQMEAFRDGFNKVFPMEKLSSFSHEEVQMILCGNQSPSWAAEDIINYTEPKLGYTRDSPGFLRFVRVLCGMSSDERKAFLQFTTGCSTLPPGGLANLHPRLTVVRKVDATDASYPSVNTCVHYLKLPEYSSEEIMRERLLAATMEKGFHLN
UniProt P42025: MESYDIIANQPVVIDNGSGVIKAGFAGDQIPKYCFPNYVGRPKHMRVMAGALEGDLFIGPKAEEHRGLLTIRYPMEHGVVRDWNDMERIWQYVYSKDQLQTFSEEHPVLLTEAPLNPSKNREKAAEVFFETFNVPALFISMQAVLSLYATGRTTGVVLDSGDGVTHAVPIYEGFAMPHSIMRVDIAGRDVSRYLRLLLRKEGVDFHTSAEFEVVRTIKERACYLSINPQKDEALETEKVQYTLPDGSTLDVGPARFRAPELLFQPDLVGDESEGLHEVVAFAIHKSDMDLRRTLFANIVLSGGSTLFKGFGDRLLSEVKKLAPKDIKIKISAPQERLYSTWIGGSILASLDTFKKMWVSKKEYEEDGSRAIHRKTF
UniProt Q9UHI6: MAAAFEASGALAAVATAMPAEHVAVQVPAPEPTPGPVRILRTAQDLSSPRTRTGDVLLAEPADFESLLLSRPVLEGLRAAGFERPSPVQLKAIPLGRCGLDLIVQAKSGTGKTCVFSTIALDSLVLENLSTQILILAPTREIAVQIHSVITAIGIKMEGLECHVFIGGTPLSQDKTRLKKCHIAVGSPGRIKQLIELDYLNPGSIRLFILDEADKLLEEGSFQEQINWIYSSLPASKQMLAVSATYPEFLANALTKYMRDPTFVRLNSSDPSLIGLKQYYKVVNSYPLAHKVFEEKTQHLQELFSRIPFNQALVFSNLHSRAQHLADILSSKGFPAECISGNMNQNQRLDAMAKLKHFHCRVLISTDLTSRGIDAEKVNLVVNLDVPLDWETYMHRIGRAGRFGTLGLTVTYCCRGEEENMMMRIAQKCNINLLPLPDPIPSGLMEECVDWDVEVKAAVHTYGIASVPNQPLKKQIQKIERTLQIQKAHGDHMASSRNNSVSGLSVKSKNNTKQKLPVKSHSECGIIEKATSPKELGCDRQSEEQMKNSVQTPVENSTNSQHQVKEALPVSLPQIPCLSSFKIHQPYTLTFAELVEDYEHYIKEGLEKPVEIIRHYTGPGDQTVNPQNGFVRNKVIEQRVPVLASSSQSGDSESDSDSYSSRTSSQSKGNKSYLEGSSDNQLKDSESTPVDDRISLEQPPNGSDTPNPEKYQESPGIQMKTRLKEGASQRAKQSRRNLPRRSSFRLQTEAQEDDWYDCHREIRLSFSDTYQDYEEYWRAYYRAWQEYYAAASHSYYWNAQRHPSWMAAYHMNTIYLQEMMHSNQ
UniProt P49841: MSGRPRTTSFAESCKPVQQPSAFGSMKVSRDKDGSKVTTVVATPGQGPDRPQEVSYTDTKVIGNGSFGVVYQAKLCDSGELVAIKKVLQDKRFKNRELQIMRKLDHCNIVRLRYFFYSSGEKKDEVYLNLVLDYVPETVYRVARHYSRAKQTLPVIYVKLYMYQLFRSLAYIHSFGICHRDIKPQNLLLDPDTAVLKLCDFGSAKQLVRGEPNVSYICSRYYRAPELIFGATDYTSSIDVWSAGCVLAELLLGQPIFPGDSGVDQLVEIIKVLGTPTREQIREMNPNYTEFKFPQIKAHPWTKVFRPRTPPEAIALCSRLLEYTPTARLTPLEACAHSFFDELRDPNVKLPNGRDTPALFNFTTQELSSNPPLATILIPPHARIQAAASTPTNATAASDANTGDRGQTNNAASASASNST
UniProt Q96JN8: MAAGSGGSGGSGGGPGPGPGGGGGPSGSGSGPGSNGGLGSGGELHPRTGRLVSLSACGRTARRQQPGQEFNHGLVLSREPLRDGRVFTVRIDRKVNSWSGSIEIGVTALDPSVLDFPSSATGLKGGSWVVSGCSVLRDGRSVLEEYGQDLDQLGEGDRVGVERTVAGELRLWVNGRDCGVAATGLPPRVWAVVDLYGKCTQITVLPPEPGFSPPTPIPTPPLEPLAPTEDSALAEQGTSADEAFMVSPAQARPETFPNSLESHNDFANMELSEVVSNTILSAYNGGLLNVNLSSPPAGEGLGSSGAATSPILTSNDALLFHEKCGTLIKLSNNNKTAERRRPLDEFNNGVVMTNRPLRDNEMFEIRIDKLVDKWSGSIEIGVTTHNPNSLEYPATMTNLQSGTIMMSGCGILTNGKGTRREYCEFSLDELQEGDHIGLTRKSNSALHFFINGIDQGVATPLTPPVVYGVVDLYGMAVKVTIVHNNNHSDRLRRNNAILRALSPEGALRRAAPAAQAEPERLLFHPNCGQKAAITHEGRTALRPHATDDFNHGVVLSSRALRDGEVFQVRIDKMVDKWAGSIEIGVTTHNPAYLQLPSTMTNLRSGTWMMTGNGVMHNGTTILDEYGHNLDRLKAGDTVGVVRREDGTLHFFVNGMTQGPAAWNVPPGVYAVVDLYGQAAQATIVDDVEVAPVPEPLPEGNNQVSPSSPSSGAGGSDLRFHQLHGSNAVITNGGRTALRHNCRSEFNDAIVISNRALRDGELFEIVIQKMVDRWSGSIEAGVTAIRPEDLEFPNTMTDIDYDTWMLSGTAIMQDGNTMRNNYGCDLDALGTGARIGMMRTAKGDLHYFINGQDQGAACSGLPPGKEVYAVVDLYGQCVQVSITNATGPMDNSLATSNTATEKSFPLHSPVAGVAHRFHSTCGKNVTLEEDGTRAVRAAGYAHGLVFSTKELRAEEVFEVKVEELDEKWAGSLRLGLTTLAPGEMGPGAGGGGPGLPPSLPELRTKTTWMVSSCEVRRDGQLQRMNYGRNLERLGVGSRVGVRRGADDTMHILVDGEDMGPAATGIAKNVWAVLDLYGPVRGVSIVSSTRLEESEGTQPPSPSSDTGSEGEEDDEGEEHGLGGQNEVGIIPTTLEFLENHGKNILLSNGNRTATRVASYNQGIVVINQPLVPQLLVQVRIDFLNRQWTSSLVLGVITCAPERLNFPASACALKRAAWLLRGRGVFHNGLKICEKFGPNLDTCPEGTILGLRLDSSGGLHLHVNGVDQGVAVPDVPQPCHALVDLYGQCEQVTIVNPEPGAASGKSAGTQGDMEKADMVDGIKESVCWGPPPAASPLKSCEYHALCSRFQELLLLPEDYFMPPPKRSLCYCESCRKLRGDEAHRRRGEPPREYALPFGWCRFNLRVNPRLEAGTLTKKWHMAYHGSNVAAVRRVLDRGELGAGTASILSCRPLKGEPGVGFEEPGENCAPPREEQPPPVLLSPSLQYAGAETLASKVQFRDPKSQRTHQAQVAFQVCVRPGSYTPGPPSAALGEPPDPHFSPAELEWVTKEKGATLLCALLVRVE
UniProt Q96SZ4: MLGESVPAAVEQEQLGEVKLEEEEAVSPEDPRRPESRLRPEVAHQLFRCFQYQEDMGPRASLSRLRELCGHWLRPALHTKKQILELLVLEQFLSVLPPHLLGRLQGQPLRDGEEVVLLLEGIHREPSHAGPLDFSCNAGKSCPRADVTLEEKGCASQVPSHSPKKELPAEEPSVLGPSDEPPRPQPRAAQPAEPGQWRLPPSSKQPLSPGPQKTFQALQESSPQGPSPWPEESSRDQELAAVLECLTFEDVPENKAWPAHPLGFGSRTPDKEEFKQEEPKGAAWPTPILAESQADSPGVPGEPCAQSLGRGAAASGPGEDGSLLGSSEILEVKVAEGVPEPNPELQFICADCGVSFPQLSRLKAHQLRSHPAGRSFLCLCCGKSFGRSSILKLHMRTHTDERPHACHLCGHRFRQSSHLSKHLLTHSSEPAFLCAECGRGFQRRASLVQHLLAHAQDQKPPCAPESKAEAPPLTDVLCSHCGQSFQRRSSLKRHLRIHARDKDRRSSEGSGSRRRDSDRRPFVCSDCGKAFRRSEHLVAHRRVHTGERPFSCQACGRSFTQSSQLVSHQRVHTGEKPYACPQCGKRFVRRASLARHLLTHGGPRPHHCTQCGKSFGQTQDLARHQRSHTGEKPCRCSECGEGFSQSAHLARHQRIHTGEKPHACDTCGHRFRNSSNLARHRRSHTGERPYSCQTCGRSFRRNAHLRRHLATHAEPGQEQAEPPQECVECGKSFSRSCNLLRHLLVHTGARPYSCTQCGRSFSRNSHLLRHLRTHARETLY

Key:
[1] = molecular target: T1, RNF181 (human (endogenous in H9 hESCs)) (UniProt Q9P0P0); assay: affinity purification with mass spectrometry; endogenous E3 (HERC2, HECTD1, RNF181, KCMF1 or UBR7) immunoprecipitated with its antibody (4 µg, 30 minutes on ice) from 330 µg H9 hESC RIPA lysate (50 mM Tris-HCl pH 6.7, 150 mM NaCl, 1% Triton x-100, 1% sodium deoxycholate, 1 mM EDTA), µMACS Micro Beads; control co-IP with anti-FLAG antibody; label-free LC-MS/MS, FDR < 0.2; no RNase
T1 sequence: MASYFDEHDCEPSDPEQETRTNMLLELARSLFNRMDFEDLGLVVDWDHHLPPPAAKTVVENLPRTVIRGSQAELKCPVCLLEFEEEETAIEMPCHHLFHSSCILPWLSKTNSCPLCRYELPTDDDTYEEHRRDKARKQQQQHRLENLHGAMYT

[2] = molecular target: HERC2 (human (endogenous in H9 hESCs)) (UniProt O95714); assay: affinity purification with mass spectrometry; as a1 for HERC2, but H9 hESC lysate incubated with 125 µl ml^-1 RNase A for one hour on ice prior to immunoprecipitation
[3] = molecular target: HECTD1 (human (endogenous in H9 hESCs)) (UniProt Q9ULT8); assay: affinity purification with mass spectrometry; endogenous E3 (HERC2, HECTD1, RNF181, KCMF1 or UBR7) immunoprecipitated with its antibody (4 µg, 30 minutes on ice) from 330 µg H9 hESC RIPA lysate (50 mM Tris-HCl pH 6.7, 150 mM NaCl, 1% Triton x-100, 1% sodium deoxycholate, 1 mM EDTA), µMACS Micro Beads; control co-IP with anti-FLAG antibody; label-free LC-MS/MS, FDR < 0.2; no RNase
[4] = molecular target: HECTD1 (human (endogenous in H9 hESCs)) (UniProt Q9ULT8); assay: affinity purification with mass spectrometry; co-immunoprecipitation of endogenous HECTD1 from NPCs differentiated from H9 hESCs (n = 3), label-free MS, FDR < 0.2
[5] = molecular target: HECTD1 (human (endogenous in H9 hESCs)) (UniProt Q9ULT8); assay: affinity purification with mass spectrometry; co-immunoprecipitation of endogenous HECTD1 or RNF181 from neurons differentiated from H9 hESCs, label-free MS, FDR < 0.2
[6] = molecular target: HERC2 (human (endogenous in H9 hESCs)) (UniProt O95714); assay: affinity purification with mass spectrometry; endogenous E3 (HERC2, HECTD1, RNF181, KCMF1 or UBR7) immunoprecipitated with its antibody (4 µg, 30 minutes on ice) from 330 µg H9 hESC RIPA lysate (50 mM Tris-HCl pH 6.7, 150 mM NaCl, 1% Triton x-100, 1% sodium deoxycholate, 1 mM EDTA), µMACS Micro Beads; control co-IP with anti-FLAG antibody; label-free LC-MS/MS, FDR < 0.2; no RNase
[7] = molecular target: T2, UBR7 (human (endogenous in H9 hESCs)) (UniProt Q8N806); assay: as above
T2 sequence: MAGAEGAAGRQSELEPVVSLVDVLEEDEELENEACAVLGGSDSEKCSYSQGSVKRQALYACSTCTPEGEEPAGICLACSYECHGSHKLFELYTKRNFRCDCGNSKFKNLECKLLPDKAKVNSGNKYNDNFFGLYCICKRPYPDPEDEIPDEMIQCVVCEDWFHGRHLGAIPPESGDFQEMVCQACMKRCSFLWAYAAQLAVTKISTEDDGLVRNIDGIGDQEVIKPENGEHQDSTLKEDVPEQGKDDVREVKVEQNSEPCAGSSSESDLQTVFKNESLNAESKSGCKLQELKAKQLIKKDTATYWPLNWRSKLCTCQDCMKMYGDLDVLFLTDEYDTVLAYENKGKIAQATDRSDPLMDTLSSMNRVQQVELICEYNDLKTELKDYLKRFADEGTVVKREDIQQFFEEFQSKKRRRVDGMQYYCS

Molecule: ACTR1B (from UniProt P42025 1-376)
- binding [1]: binds

Molecule: CENPF (from UniProt P49454 1-3114)
- binding [2]: binds

Molecule: DCTN4 (from UniProt Q9UJW0 1-460)
- binding [1]: binds

Molecule: DDX20 (from UniProt Q9UHI6 1-824)
- binding [2]: binds

Molecule: EIF3C (from UniProt Q99613 1-913)
- binding [2]: binds

Molecule: EXOC5 (from UniProt O00471 1-708)
- binding [3]: binds

Molecule: GSK3B (from UniProt P49841 1-420)
- binding [4]: binds
- binding [5]: binds
- binding [3]: binds

Molecule: LRRK2 (from UniProt Q5S007 1-2527)
- binding [6]: no binding

Molecule: NEURL4 (from UniProt Q96JN8 1-1562)
- binding [2]: binds
- binding [6]: binds

Molecule: PSMD3 (from UniProt O43242 1-534)
- binding [1]: binds

Molecule: SRGAP2 (from UniProt O75044 1-1071)
- binding [2]: binds
- binding [6]: binds

Molecule: ZSCAN10 (from UniProt Q96SZ4 1-780)
- binding [7]: binds

B1: DLAT (protein, UniProt P10515 87-647)
chain: SLPPHQKVPLPSLSPTMQAGTIARWEKKEGDKINEGDLIAEVETDKATVGFESLEECYMAKILVAEGTRDVPIGAIICITVGKPEDIEAFKNYTLDSSAAPTPQAAPAPTPAATASPPTPSAQAPGSSYPPHMQVLLPALSPTMTMGTVQRWEKKVGEKLSEGDLLAEIETDKATIGFEVQEEGYLAKILVPEGTRDVPLGTPLCIIVEKEADISAFADYRPTEVTDLKPQVPPPTPPPVAAVPPTPQPLAPTPSAPCPATPAGPKGRVFVSPLAKKLAVEKGIDLTQVKGTGPDGRITKKDIDSFVPSKVAPAPAAVVPPTGPGMAPVPTGVFTDIPISNIRRVIAQRLMQSKQTIPHYYLSIDVNMGEVLLVRKELNKILEGRSKISVNDFIIKASALACLKVPEANSSWMDTVIRQNHVVDVSVAVSTPAGLITPIVFNAHIKGVETIANDVVSLATKAREGKLQPHEFQGGTFTISNLGMFGIKNFSAIINPPQACILAIGASEDKLVPADNEKGFDVASMMSVTLSCDHRVVDGAVGAQWLAEFRKYLEKPITMLL
- binding [4]: binds
- binding [5]: binds
- binding [3]: binds
- binding [7]: binds

B2: PDHX (protein, UniProt O00330 54-501)
chain: GDPIKILMPSLSPTMEEGNIVKWLKKEGEAVSAGDALCEIETDKAVVTLDASDDGILAKIVVEEGSKNIRLGSLIGLIVEEGEDWKHVEIPKDVGPPPPVSKPSEPRPSPEPQISIPVKKEHIPGTLRFRLSPAARNILEKHSLDASQGTATGPRGIFTKEDALKLVQLKQTGKITESRPTPAPTATPTAPSPLQATAGPSYPRPVIPPVSTPGQPNAVGTFTEIPASNIRRVIAKRLTESKSTVPHAYATADCDLGAVLKVRQDLVKDDIKVSVNDFIIKAAAVTLKQMPDVNVSWDGEGPKQLPFIDISVAVATDKGLLTPIIKDAAAKGIQEIADSVKALSKKARDGKLLPEEYQGGSFSISNLGMFGIDEFTAVINPPQACILAVGRFRPVLKLTEDEEGNAKLQQRQLITVTMSSDSRVVDDELATRFLKSFKANLENPIRLA
- binding [4]: binds
- binding [5]: binds
- binding [3]: binds

B3: SEC23IP (protein, UniProt Q9Y6Y8 1-1000)
chain: MAERKPNGGSGGASTSSSGTNLLFSSSATEFSFNVPFIPVTQASASPASLLLPGEDSTDVGEEDSFLGQTSIHTSAPQTFSYFSQVSSSSDPFGNIGQSPLTTAATSVGQSGFPKPLTALPFTTGSQDVSNAFSPSISKAQPGAPPSSLMGINSYLPSQPSSLPPSYFGNQPQGIPQPGYNPYRHTPGSSRANPYIAPPQLQQCQTPGPPAHPPPSGPPVQMYQMPPGSLPPVPSSVQSPAQQQVPARPGAPSVQVPSPFLLQNQYEPVQPHWFYCKEVEYKQLWMPFSVFDSLNLEEIYNSVQPDPESVVLGTDGGRYDVYLYDRIRKAAYWEEEPAEVRRCTWFYKGDTDSRFIPYTEEFSEKLEAEYKKAVTTNQWHRRLEFPSGETIVMHNPKVIVQFQPSSVPDEWGTTQDGQTRPRVVKRGIDDNLDEIPDGEMPQVDHLVFVVHGIGPVCDLRFRSIIECVDDFRVVSLKLLRTHFKKSLDDGKVSRVEFLPVHWHSSLGGDATGVDRNIKKITLPSIGRFRHFTNETLLDILFYNSPTYCQTIVEKVGMEINHLHALFMSRNPDFKGGVSVAGHSLGSLILFDILSNQKDLNLSKCPGPLAVANGVVKQLHFQEKQMPEEPKLTLDESYDLVVENKEVLTLQETLEALSLSEYFSTFEKEKIDMESLLMCTVDDLKEMGIPLGPRKKIANFVEHKAAKLKKAASEKKAVAATSTKGQEQSAQKTKDMASLPSESNEPKRKLPVGACVSSVCVNYESFEVGAGQVSVAYNSLDFEPEIFFALGSPIAMFLTIRGVDRIDENYSLPTCKGFFNIYHPLDPVAYRLEPMIVPDLDLKAVLIPHHKGRKRLHLELKESLSRMGSDLKQGFISSLKSAWQTLNEFARAHTSSTQLQEELEKVANQIKEEEEKQVVEAEKVVESPDFSKDEDYLGKVGMLNGGRRIDYVLQEKPIESFNEYLFALQSHLCYWESEDTALLLLKEIYRTMNISPEQPQH
- binding [2]: binds
- binding [6]: binds

B4: A2M (protein, UniProt P01023 24-1474)
chain: SVSGKPQYMVLVPSLLHTETTEKGCVLLSYLNETVTVSASLESVRGNRSLFTDLEAENDVLHCVAFAVPKSSSNEEVMFLTVQVKGPTQEFKKRTTVMVKNEDSLVFVQTDKSIYKPGQTVKFRVVSMDENFHPLNELIPLVYIQDPKGNRIAQWQSFQLEGGLKQFSFPLSSEPFQGSYKVVVQKKSGGRTEHPFTVEEFVLPKFEVQVTVPKIITILEEEMNVSVCGLYTYGKPVPGHVTVSICRKYSDASDCHGEDSQAFCEKFSGQLNSHGCFYQQVKTKVFQLKRKEYEMKLHTEAQIQEEGTVVELTGRQSSEITRTITKLSFVKVDSHFRQGIPFFGQVRLVDGKGVPIPNKVIFIRGNEANYYSNATTDEHGLVQFSINTTNVMGTSLTVRVNYKDRSPCYGYQWVSEEHEEAHHTAYLVFSPSKSFVHLEPMSHELPCGHTQTVQAHYILNGGTLLGLKKLSFYYLIMAKGGIVRTGTHGLLVKQEDMKGHFSISIPVKSDIAPVARLLIYAVLPTGDVIGDSAKYDVENCLANKVDLSFSPSQSLPASHAHLRVTAAPQSVCALRAVDQSVLLMKPDAELSASSVYNLLPEKDLTGFPGPLNDQDNEDCINRHNVYINGITYTPVSSTNEKDMYSFLEDMGLKAFTNSKIRKPKMCPQLQQYEMHGPEGLRVGFYESDVMGRGHARLVHVEEPHTETVRKYFPETWIWDLVVVNSAGVAEVGVTVPDTITEWKAGAFCLSEDAGLGISSTASLRAFQPFFVELTMPYSVIRGEAFTLKATVLNYLPKCIRVSVQLEASPAFLAVPVEKEQAPHCICANGRQTVSWAVTPKSLGNVNFTVSAEALESQELCGTEVPSVPEHGRKDTVIKPLLVEPEGLEKETTFNSLLCPSGGEVSEELSLKLPPNVVEESARASVSVLGDILGSAMQNTQNLLQMPYGCGEQNMVLFAPNIYVLDYLNETQQLTPEIKSKAIGYLNTGYQRQLNYKHYDGSYSTFGERYGRNQGNTWLTAFVLKTFAQARAYIFIDEAHITQALIWLSQRQKDNGCFRSSGSLLNNAIKGGVEDEVTLSAYITIALLEIPLTVTHPVVRNALFCLESAWKTAQEGDHGSHVYTKALLAYAFALAGNQDKRKEVLKSLNEEAVKKDNSVHWERPQKPKAPVGHFYEPQAPSAEVEMTSYVLLAYLTAQPAPTSEDLTSATNIVKWITKQQNAQGGFSSTQDTVVALHALSKYGAATFTRTGKAAQVTIQSSGTFSSKFQVDNNNRLLLQQVSLPELPGEYSMKVTGEGCVYLQTSLKYNILPEKEEFPFALGVQTLPQTCDEPKAHTSFQISLSVSYTGSRSASNMAIVDVKMVSGFIPLKPTVKMLERSNHVSRTEVSSNHVLIYLDKVSNQTLSLFFTVLQDVPVRDLKPAIVKVYDYYETDEFAIAEYNAPCSKDLGNA
- binding [7]: binds
